Measurements published in the supplement of paper PMC4962491.
± gives the standard deviation of the averaged measurements. The list shows a part of the results, in another mix than the full data. Single values are uncertain here, since repeats match poorly.

Tested on: FaDu
Experiment: mitochondrial oxygen consumption rate normalised to cell number, Z score over the library; higher = higher oxygen consumption (negative = OCR reduction)
Conditions: treatment time 24 h, assay medium: 5 mM galactose, 5 mM pyruvate, 4 mM glutamine
Experimental: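 Primary screen: FaDu cells were incubated 24 h with Pharmakon 1600 / TDI oncology set compounds at 2 or 10 uM. Mitochondrial-specific OCR (basal minus 2 uM antimycin A) was measured on a Seahorse XF96 in assay medium with 5 mM galactose, 5 mM pyruvate and 4 mM glutamine, then corrected for Hoechst cell number and expressed as a Z score […]. Compounds that cut cell number by >66% were excluded. Two repeats.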

Row | Compound | mitochondrial oxygen consumption rate normalised (2 µM) | mitochondrial oxygen consumption rate normalised (10 µM)
1 | C[C@]12C=CC(=O)C=C1CC[C@@H]1[C@@H]2[C@@H](O)C[C@@]2(C)[C@H]1CC[C@]2(O)C(=O)COC(=O)CCC(=O)O | 0.573 ± 0.62 | 
2 | COC(=O)[C@@H]1[C@H]2C[C@H]3c4[nH]c5ccccc5c4CCN3C[C@@H]2CC[C@@H]1O | 0.807 ± 0.13 | 
3 | CCCCCCc1ccc(O)cc1O | -0.207 ± 0.67 | 
4 | CC1(C)NC(=O)N(c2ccc([N+](=O)[O-])c(C(F)(F)F)c2)C1=O | -0.121 ± 0.49 | 
5 | CC(=O)N[C@@H]([C@@H](O)[C@H](O)[C@H](O)CO)[C@@H](O)CC(=O)C(=O)O | 0.031 ± 1.1 | 
6 | COC(=O)C(N)CS (configuration not stated) | -0.712 ± 0.15 | 0.244 ± 0.32
7 | CC(N)C12CC3CC(CC(C3)C1)C2 (configuration not stated) | 0.462 ± 0.27 | 
8 | Nc1cc(-c2ccncc2)c[nH]c1=O | 0.123 ± 0.46 | 
9 | C[C@H]1C[C@@H]2[C@H]([C@@H](O)C[C@@]3(C)[C@H]2CC[C@]3(O)C(=O)COC(=O)CCC(=O)O)[C@@]2(C)C=CC(=O)C=C12 | -0.0934 ± 0.12 | 
10 | CN(CCOc1ccc(CC2SC(=O)NC2=O)cc1)c1ccccn1 (configuration not stated) | -0.465 ± 0.65 | 
11 | CN(C)CC[C@@H](c1ccc(Cl)cc1)c1ccccn1 | 0.017 ± 0.087 | 
12 | OC(CCN1CCCCC1)(c1ccccc1)C1CCCCC1 (configuration not stated) | 0.123 ± 0.33 | 
13 | N=C(N)N/N=C/c1c(Cl)cccc1Cl | -0.0991 ± 0.16 | 
14 | Cc1ccc2c(Cl)cc(Cl)c(O)c2n1 | -1.22 ± 0.57 | 
15 | O=C(OCc1ccccc1)c1ccccc1 | 0.896 ± 0.32 | 
16 | CN(C)CCOC(=O)COc1ccc(Cl)cc1 | -0.626 ± 0.76 | 
17 | OC[C@H]1O[C@@H](O[C@@H]2[C@@H](CO)OC(O)(CO)[C@H]2O)[C@H](O)[C@@H](O)[C@H]1O (mixture of isomers) | -0.775 ± 0.29 | 1.09 ± 0.68
18 | COc1ccc(-c2cc(C(F)F)nn2-c2ccc(S(N)(=O)=O)cc2)cc1F | -0.215 ± 1 | 
19 | N[C@@H](C(=O)N[C@@H]1C(=O)N2C(C(=O)O)=C(Cl)CS[C@H]12)c1ccccc1 | -0.098 ± 0.19 | 
20 | COc1ccc(C(=O)NCc2ccc(OCCN(C)C)cc2)cc1OC | -0.0508 ± 1.3 | 
21 | NC(N)=O | 0.147 ± 0.15 | 

An excerpt of the results above:
Row | Compound | mitochondrial oxygen consumption rate normalised (2 µM) | mitochondrial oxygen consumption rate normalised (10 µM)
2 | COC(=O)[C@@H]1[C@H]2C[C@H]3c4[nH]c5ccccc5c4CCN3C[C@@H]2CC[C@@H]1O | 0.807 ± 0.13 | 
3 | CCCCCCc1ccc(O)cc1O | -0.207 ± 0.67 | 
4 | CC1(C)NC(=O)N(c2ccc([N+](=O)[O-])c(C(F)(F)F)c2)C1=O | -0.121 ± 0.49 | 
5 | CC(=O)N[C@@H]([C@@H](O)[C@H](O)[C@H](O)CO)[C@@H](O)CC(=O)C(=O)O | 0.031 ± 1.1 | 
6 | COC(=O)C(N)CS (configuration not stated) | -0.712 ± 0.15 | 0.244 ± 0.32
7 | CC(N)C12CC3CC(CC(C3)C1)C2 (configuration not stated) | 0.462 ± 0.27 | 
8 | Nc1cc(-c2ccncc2)c[nH]c1=O | 0.123 ± 0.46 | 
9 | C[C@H]1C[C@@H]2[C@H]([C@@H](O)C[C@@]3(C)[C@H]2CC[C@]3(O)C(=O)COC(=O)CCC(=O)O)[C@@]2(C)C=CC(=O)C=C12 | -0.0934 ± 0.12 | 
10 | CN(CCOc1ccc(CC2SC(=O)NC2=O)cc1)c1ccccn1 (configuration not stated) | -0.465 ± 0.65 | 
11 | CN(C)CC[C@@H](c1ccc(Cl)cc1)c1ccccn1 | 0.017 ± 0.087 | 

(continued)

Row | Compound | mitochondrial oxygen consumption rate normalised (2 µM) | mitochondrial oxygen consumption rate normalised (10 µM)
22 | Cn1c([N+](=O)[O-])cnc1COC(N)=O | 0.000861 ± 0.91 | 
23 | CN(C)[C@@H]1C(O)=C(C(N)=O)C(=O)[C@@]2(O)C(O)=C3C(=O)c4c(O)ccc(Cl)c4[C@@H](O)[C@H]3C[C@@H]12 | 0.441 ± 1.1 | 
24 | CCc1cccc2c3c([nH]c12)C(CC)(CC(=O)O)OCC3 (configuration not stated) | 1.44 ± 0.9 | 
25 | Cc1noc(NS(=O)(=O)c2ccc(N)cc2)c1C | -1.15 ± 0.13 | 
26 | CCCCC(=O)O[C@]1(C(=O)CO)CC[C@H]2[C@@H]3CCC4=CC(=O)CC[C@]4(C)[C@H]3[C@@H](O)C[C@@]21C | 0.0799 ± 0.29 | 
27 | C[C@]12CC[C@@H]3c4ccc(O)cc4CC[C@H]3[C@@H]1C[C@@H](O)[C@@H]2O | 0.802 ± 0.44 | -0.347 ± 0.41
28 | CC(Oc1c(Cl)cccc1Cl)C1=NCCN1 (configuration not stated) | 1.6 ± 0.57 | 
29 | CC1=C(CC(=O)O)c2cc(F)ccc2/C1=C\c1ccc([S+](C)[O-])cc1 (configuration not stated) | -0.844 ± 0.24 | 
30 | Cn1nnnc1SCC1=C(C(=O)O)N2C(=O)[C@@H](NC(=O)[C@H](OC=O)c3ccccc3)[C@H]2SC1 | 0.421 ± 0.49 | 0.0513 ± 0.34
31 | CCOC(=O)[C@H](CCc1ccccc1)N[C@@H](C)C(=O)N1CCC[C@H]1C(=O)O | 0.482 ± 0.82 | 
32 | CO/N=C(\C(=O)N[C@@H]1C(=O)N2C(C(=O)O)=C(C[N+]3(C)CCCC3)CS[C@H]12)c1csc(N)n1 | 0.126 ± 0.21 | 
33 | O=S(=O)(O)CCCS(=O)(=O)O | 0.567 ± 1.1 | 
34 | CC(=O)Nc1ccc(O)cc1 | 0.246 ± 0.076 | 
35 | CC(=O)Oc1c(C)c(C)c2c(c1C)CCC(C)(CCCC(C)CCCC(C)CCCC(C)C)O2 (stereo not drawn) [alpha-TOCHOPHERYL ACETATE] | 0.685 ± 0.49 | -0.281 ± 0.21
36 | Nc1cccc2c1CN(C1CCC(=O)NC1=O)C2=O (configuration not stated) [Lenalidomide] | 0.752 ± 0.3 | 
37 | CCCCC(CC)CN=C(N)N=C(N)NCCCCCCNC(N)=NC(N)=NCC(CC)CCCC (configuration not stated) | -1.08 ± 0.56 | 
38 | COc1ccc2[nH]c([S+]([O-])Cc3ncc(C)c(OC)c3C)nc2c1 (configuration not stated) | 0.168 ± 0.089 | 
39 | CC(C)COC(=O)c1ccc(N)cc1 | -0.241 ± 0.33 | 
40 | Cc1ccccc1N1C(=O)c2cc(S(N)(=O)=O)c(Cl)cc2NC1C (configuration not stated) | -0.0812 ± 0.29 | 
41 | Cc1cc(-n2c(=O)[nH]c(=O)n(C)c2=O)ccc1Oc1ccc(SC(F)(F)F)cc1 | -0.609 ± 0.28 | 
42 | OCCOCCN1CCN(C(c2ccccc2)c2ccc(Cl)cc2)CC1 (configuration not stated) | -0.481 ± 0.9 | 
